Laboratory results: patent publication US7977384B1, “Anticancer tobacco cembranoids” (The University of Louisiana at Monroe, priority 2007, dated 2011)
Some entries share one result that the patent states for a list of compounds.

The compounds below were run on PC-3M cells (assay: MTT proliferation assay, prostate cell line PC-3M). Conditions: 50 nM dose.
Assay type: cell-based, human

How did the cytotoxicity turn out when `C/C1=C/[C@H](OC(=O)NCCCl)C[C@@](C)(O)/C=C/[C@H](C(C)C)CC/C(C)=C/CC1` [Compound 8, 6-O-[N-(2-chloroethyl)carbamoyl](1S,2E,4R,6R,7Z,11E)-2,7,11-cembratriene-4,6-diol] was run?
The cytotoxicity was “much less cytotoxic than compound 1”.

For `CCNC(=O)O[C@H]1/C=C(/C)CC/C=C(\C)CC[C@@H](C(C)C)/C=C/[C@](C)(O)C1` [Compound 9, 6-O-[N-(ethyl)carbamoyl](1S,2E,4R,6R,7Z,11E)-2,7,11-cembratriene-4,6-diol], which cytotoxicity is on record?
Its cytotoxicity is “much less cytotoxic than compound 1”.

`C/C1=C/[C@H](OC(=O)NCc2ccccc2)C[C@@](C)(O)/C=C/[C@H](C(C)C)CC/C(C)=C/CC1` [Compound 10, 6-O-[N-(benzyl)carbamoyl](1S,2E,4R,6R,7Z,11E)-2,7,11-cembratriene-4,6-diol] was tested. Which cytotoxicity did it give?
The cytotoxicity was “much less cytotoxic than compound 1”.
